The values that follow are results of earlier work, collected in patent US6569459B2, “Method of administration of paclitaxel-plasma protein formulation” (Teva Pharmaceutical Industries, Ltd., priority 2000, dated 2003).

With `CC(=O)O[C@H]1C(=O)[C@@]2(C)[C@H]([C@H](OC(=O)c3ccccc3)[C@]3(O)C[C@H](OC(=O)[C@H](O)[C@@H](NC(=O)c4ccccc4)c4ccccc4)C(C)=C1C3(C)C)[C@]1(OC(C)=O)CO[C@@H]1C[C@@H]2O` [Paclitaxel], the water solubility entry is “substantially water insoluble”.
